These are yes or no findings as the source states them, for the method shown. Binding calls can cover weak binding; strength is not graded here.
Biological target: MBP-CfaE-N Tyr183Ala mutant (enterotoxigenic Escherichia coli)
Assay: ELISA on plate-bound MBP-CfaE-N Tyr183Ala mutant, OD405

B1: anti-CfaE HuMab 68-48 (antibody, human IgG1, V domains shown)
VH: QVQLQQWGAGLLKPSETLSLTCAVYGGSFSGYSWSWIRQSPGKGLEWIGEIYHSGSTNYNPSLKSRVTISGDTSKNQFSLKLSSVTAADTAVYYCARENLQGYYYYGMDVWGQGTTVTVSS
VL: AIQLTQSPSSLSASVGDRVTITCRASQGISSSLAWYQQKPGKAPKLLIYDASSLESGVPSRFSGSGSGTDFTLTISSLQPEDFATYYCQQFNSYPRTFGQGTKVEIK
binding: binds

— patent US20210388068A1
